For one molecule, binding results are on record in PMC11648614.

Sequences of proteins named here, by UniProt entry; tags and fusion partners are left off. A change or cut given only in a name is not applied to a line headed by its entry.
UniProt P60953: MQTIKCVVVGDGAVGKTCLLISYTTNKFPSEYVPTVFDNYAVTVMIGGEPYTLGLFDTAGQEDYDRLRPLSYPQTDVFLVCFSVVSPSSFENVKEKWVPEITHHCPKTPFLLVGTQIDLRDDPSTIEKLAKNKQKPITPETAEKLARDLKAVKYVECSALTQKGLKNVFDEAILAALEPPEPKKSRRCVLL

The experiment concerns the target Cdc42 (his-tagged, human constitutively active mutant Q61L) (human) (UniProt P60953). Nature of the experiment: recruitment to a supported lipid bilayer, confocal microscopy; 1 uM human His-Cdc42 incubated 10 min on SLBs containing 0.1 to 5% DGS-NTA-Ni, unbound Cdc42 washed away 3x with SLB buffer; C. elegans WSP-1 (100 nM, 10% 488-tagged) added in actin polymerization buffer containing 150 mM KCl; both purified.

No constants are given. Whether binding was seen depends on the method and setting. Some binding calls cover weakened binding; strength is not graded here.

B1: C. elegans N-WASP (WSP-1) (protein, UniProt Q17795 1-607)
chain: MSVYPPTPTMSMMNGGVDRKRAKRPPNVGSKELNSQENEMLFALVGSEAVCLTAAVVQLLKSDRGAWRVDLPHGVISLVKDYAQRAYFLRIFDILEERIVWDFKLYKAFRAQSFPQCRKLLAFEQMENGEDGVVIGLNFFSEYEAAEFKEHLERRHAQERKSTSTTRPAHPGMPIVVSSGIGSTPTRQFEITQAYGGTIRGPPMAIGGGQGITQMGTMAAAPQSHTHTDGNASSSGSWFRKDKNKKKDKKSKIKKEDISNPTNFQHKAHVGWNQDSGFSNTVYDDDMDEATKNILKAAGLESNNLNEDDKKFVKKFIAKNYDKYVSVGSLDPSQISSPLPPPIQQHPQMNQSWNQTPVRQYKPSFPSSAPIGSGASSYSTPAAPPPPTRVESHGLAPARPPPPPPSSGTRGIAPSRPLPQAPNYGTPENRPHAVPPPPPPPPPQSFGMAPISSAAPPPPPPPPPMGLPAVGAGAPPPPPPPPPSGAGGPASVLAKLPPAQDGRSNLLAEIQAGKQLRSVQQTADSPKSAGGDARGDVMAQIRQGAQLKHVDAAAEQERRKSTTSGAAGMGGLAGALAKALEERRMNMGIDDTSDDDDDEDDKNEWSD
modifications: 10% 488-tagged
On to B1, for which the binding entry is given as “binds”.
